Data as given in PubChem BioAssay AID652243 (Drosophila RNAi Screening Center, 2013)

Test: 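Knock-downs that decrease or increase androgen receptor reporter signal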 (primary screen)
Cell system: Drosophila S2R+ cells
Reagent: long dsRNA against Drosophila genes
Time to read-out: 72 h (48 h, then 24 h hormone)
Treatment: synthetic androgen R1881 at 10 nM for 24 h
Measurement: 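Firefly light from an androgen-responsive reporter and Renilla control light per well, raw and unnormalised, for each of two replicates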
Reading the numbers: firefly reporter light: higher = more light from androgen-responsive reporter; Renilla control light: higher = more constitutive control signal (cell number, transfection)
Hit rule: 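Hit when the log firefly-to-Renilla ratio dropped or increased by a fixed fold versus the mean of GFP or LacZ controls across duplicate plates; lowering cut given as 1.5 and as 3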
Calls: active = hit: reporter lowered or raised; inactive = no hit
In all, the deposit lists about 24,000 reagents; shown is an unselected part of those with a known target gene and a result. In the full data, 246 (1%) got an active call. 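Plates not normalised; calls are printed but the firefly/Renilla ratio behind them is not deposited; fold cut for lowering reported inconsistently.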 Raw values are not corrected between plates. Not stated in the record: the amount of reagent.

After knock-down of CG13308 [DRSC09979], the record shows firefly reporter light, replicate 1 = 3.31e5; firefly reporter light, replicate 2 = 2.71e5; Renilla control light, replicate 1 = 3.38e6; Renilla control light, replicate 2 = 2.72e6; inactive.
Silencing of amrt (amaretto) [DRSC19378] resulted in: firefly reporter light, replicate 1 = 3.02e5; firefly reporter light, replicate 2 = 3.63e5; Renilla control light, replicate 1 = 1.95e6; Renilla control light, replicate 2 = 2.75e6; inactive.
Against amrt (amaretto) [DRSC26943], the entry reads firefly reporter light, replicate 1 = 4.06e5; firefly reporter light, replicate 2 = 2.72e5; Renilla control light, replicate 1 = 8.72e5; Renilla control light, replicate 2 = 5.29e5; inactive.
For CG6891 [DRSC20016], the entry reads firefly reporter light, replicate 1 = 1.20e5; firefly reporter light, replicate 2 = 1.15e5; Renilla control light, replicate 1 = 9.20e5; Renilla control light, replicate 2 = 1.08e6; inactive.
Silencing of CG6891 [DRSC25854] came out at: firefly reporter light, replicate 1 = 2.19e5; firefly reporter light, replicate 2 = 2.78e5; Renilla control light, replicate 1 = 6.36e5; Renilla control light, replicate 2 = 6.51e5; inactive.
For CG31678 [DRSC02618], the entry reads firefly reporter light, replicate 1 = 4.67e5; firefly reporter light, replicate 2 = 1.05e6; Renilla control light, replicate 1 = 1.19e6; Renilla control light, replicate 2 = 2.18e6; inactive.
Knock-down of CG31678 [DRSC02619] resulted in: firefly reporter light, replicate 1 = 80543; firefly reporter light, replicate 2 = 56959; Renilla control light, replicate 1 = 8.84e5; Renilla control light, replicate 2 = 9.89e5; inactive.
Silencing of CG1246 [DRSC08275] resulted in: firefly reporter light, replicate 1 = 1.36e5; firefly reporter light, replicate 2 = 84035; Renilla control light, replicate 1 = 2.26e6; Renilla control light, replicate 2 = 1.11e6; inactive.

2 neighbouring records already listed:
amrt (amaretto) [DRSC26943] → firefly reporter light, replicate 1: 4.06e5; firefly reporter light, replicate 2: 2.72e5; Renilla control light, replicate 1: 8.72e5; Renilla control light, replicate 2: 5.29e5; call: inactive
CG6891 [DRSC20016] → firefly reporter light, replicate 1: 1.20e5; firefly reporter light, replicate 2: 1.15e5; Renilla control light, replicate 1: 9.20e5; Renilla control light, replicate 2: 1.08e6; call: inactive

Continued:
Ir75a (Ionotropic receptor 75a) [DRSC10188] gave firefly reporter light, replicate 1 = 1.36e5; firefly reporter light, replicate 2 = 1.65e5; Renilla control light, replicate 1 = 1.24e6; Renilla control light, replicate 2 = 1.58e6; inactive.
With knock-down of hrm (hermes) [DRSC04853], the screen gave firefly reporter light, replicate 1 = 3.46e5; firefly reporter light, replicate 2 = 3.99e5; Renilla control light, replicate 1 = 2.09e6; Renilla control light, replicate 2 = 2.26e6; inactive.
Silencing of NC2beta (Negative Cofactor 2beta) [DRSC01895] gave: firefly reporter light, replicate 1 = 1.12e6; firefly reporter light, replicate 2 = 6.60e5; Renilla control light, replicate 1 = 1.75e6; Renilla control light, replicate 2 = 1.72e6; inactive.
NC2beta (Negative Cofactor 2beta) [DRSC25346] showed firefly reporter light, replicate 1 = 4.38e5; firefly reporter light, replicate 2 = 5.80e5; Renilla control light, replicate 1 = 2.47e5; Renilla control light, replicate 2 = 2.42e5; inactive.
